Taken from: PubChem BioAssay AID1224830 (NIAID, 2016)
Test: 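Genes whose knock-down alters the TNF-alpha reporter response to LPS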 (primary screen). System: human THP-1 monocytic leukaemia cells, TNF dual-luciferase reporter clone, PMA-differentiated to macrophage-like cells. Reagent: siRNA pool against human genes, 50 nM. Time to read-out: LPS for 4 h, given about 3 days after siRNA transfection. Treatment: bacterial LPS (TLR4 ligand), 10 ng/ml. Measured: 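TNF firefly reporter luminescence divided by renilla, normalised to the plate median, then turned into a robust z-score for each replicate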. Scale: TNF reporter robust z-score: higher = stronger TNF reporter response to LPS. Rule for the call: 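Each well counts as active if its z-score is over 2.8 or under -1.5; controls are left without a call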.
This is a random part of about 18,000 deposited reagents. In the full data, about 2,900 (16%) got an active call. 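Calls are made per well; low scores hint the gene aids the LPS response, high scores that it dampens it.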 A number with no mark means an inactive call. Repeated entries: four replicate wells of each siRNA pool.

| gene symbol | TNF reporter robust z-score |
| --- | --- |
| ZBTB40 (zinc finger and BTB domain containing 40) | 3.17 (active) |
| ZBTB40 (zinc finger and BTB domain containing 40) | 2.82 (active) |
| ZBTB40 (zinc finger and BTB domain containing 40) | 2.29 |
| MOGAT3 (monoacylglycerol O-acyltransferase 3) | 2.15 |
| MOGAT3 (monoacylglycerol O-acyltransferase 3) | 1.01 |
| MOGAT3 (monoacylglycerol O-acyltransferase 3) | 1.15 |
| MOGAT3 (monoacylglycerol O-acyltransferase 3) | 0.94 |
| SAP18 (Sin3A associated protein 18) | -1.9 (active) |
| SAP18 (Sin3A associated protein 18) | -0.58 |
| SAP18 (Sin3A associated protein 18) | -0.9 |
| SAP18 (Sin3A associated protein 18) | -0.57 |
| S100A7P3 (S100 calcium binding protein A7 pseudogene 3) | 0.81 |
| S100A7P3 (S100 calcium binding protein A7 pseudogene 3) | -0.8 |
| S100A7P3 (S100 calcium binding protein A7 pseudogene 3) | 0.27 |
| S100A7P3 (S100 calcium binding protein A7 pseudogene 3) | -0.18 |
| SERPINA5 (serpin family A member 5) | -0.6 |
| SERPINA5 (serpin family A member 5) | -0.56 |
| SERPINA5 (serpin family A member 5) | -0.19 |
| SERPINA5 (serpin family A member 5) | -0.07 |
| GPRIN3 (GPRIN family member 3) | 1.34 |
| GPRIN3 (GPRIN family member 3) | -0.34 |
| GPRIN3 (GPRIN family member 3) | -0.04 |
| GPRIN3 (GPRIN family member 3) | 1.04 |
| ZNF362 (zinc finger protein 362) | 1.61 |
| ZNF362 (zinc finger protein 362) | 1.63 |
| ZNF362 (zinc finger protein 362) | 1.71 |
| ZNF362 (zinc finger protein 362) | 1.68 |
| CIMAP1B (ciliary microtubule associated protein 1B) | -0.83 |
| CIMAP1B (ciliary microtubule associated protein 1B) | -0.49 |
| CIMAP1B (ciliary microtubule associated protein 1B) | -0.86 |
| CIMAP1B (ciliary microtubule associated protein 1B) | -0.29 |
| RPS6KA3 (ribosomal protein S6 kinase A3) | 0.62 |
| RPS6KA3 (ribosomal protein S6 kinase A3) | 0.77 |
| RPS6KA3 (ribosomal protein S6 kinase A3) | 0.58 |
| RPS6KA3 (ribosomal protein S6 kinase A3) | 1.36 |
| VCY (variable charge Y-linked) | -0.07 |
| VCY (variable charge Y-linked) | -0.12 |
| VCY (variable charge Y-linked) | -0.93 |
| VCY (variable charge Y-linked) | -0.75 |
| TCAP (titin-cap) | -1.79 (active) |
| TCAP (titin-cap) | -1.84 (active) |
| TCAP (titin-cap) | -1.65 (active) |
| TCAP (titin-cap) | -1.64 (active) |
| SEMA7A (semaphorin 7A (JohnMiltonHagen blood group)) | 0.36 |
| SEMA7A (semaphorin 7A (JohnMiltonHagen blood group)) | 0.19 |
| SEMA7A (semaphorin 7A (JohnMiltonHagen blood group)) | 0.35 |
| SEMA7A (semaphorin 7A (JohnMiltonHagen blood group)) | 0.28 |
| HNRNPU (heterogeneous nuclear ribonucleoprotein U) | 0.54 |
| HNRNPU (heterogeneous nuclear ribonucleoprotein U) | 1.23 |
| HNRNPU (heterogeneous nuclear ribonucleoprotein U) | 0.75 |
| HNRNPU (heterogeneous nuclear ribonucleoprotein U) | 0.5 |
| RPL21P44 (ribosomal protein L21 pseudogene 44) | -0.66 |
| RPL21P44 (ribosomal protein L21 pseudogene 44) | -0.01 |
| RPL21P44 (ribosomal protein L21 pseudogene 44) | -0.8 |
| RPL21P44 (ribosomal protein L21 pseudogene 44) | -0.78 |
| KLHL41 (kelch like family member 41) | 3.82 (active) |
| KLHL41 (kelch like family member 41) | 4 (active) |
| KLHL41 (kelch like family member 41) | 3.42 (active) |
| KLHL41 (kelch like family member 41) | 0.89 |
| CXorf38 (chromosome X open reading frame 38) | -0.74 |
| CXorf38 (chromosome X open reading frame 38) | -0.76 |
| CXorf38 (chromosome X open reading frame 38) | -1.33 |
| CXorf38 (chromosome X open reading frame 38) | 0.33 |
| NID2 (nidogen 2) | 1.57 |
| NID2 (nidogen 2) | 2.32 |
| NID2 (nidogen 2) | -0.78 |
| NID2 (nidogen 2) | -0.09 |
| ATP5MK (ATP synthase membrane subunit k) | 0.73 |
| ATP5MK (ATP synthase membrane subunit k) | 0.33 |
| ATP5MK (ATP synthase membrane subunit k) | -0.04 |
| ATP5MK (ATP synthase membrane subunit k) | 1.2 |
| TPGS2 (tubulin polyglutamylase complex subunit 2) | 3.22 (active) |
| TPGS2 (tubulin polyglutamylase complex subunit 2) | 2.98 (active) |
| TPGS2 (tubulin polyglutamylase complex subunit 2) | 0.23 |
| TPGS2 (tubulin polyglutamylase complex subunit 2) | -0.54 |

Records listed so far whose target name begins with R or r:
| gene symbol | TNF reporter robust z-score |
| --- | --- |
| RPS6KA3 (ribosomal protein S6 kinase A3) | 0.62 |
| RPS6KA3 (ribosomal protein S6 kinase A3) | 0.77 |
| RPS6KA3 (ribosomal protein S6 kinase A3) | 0.58 |
| RPS6KA3 (ribosomal protein S6 kinase A3) | 1.36 |
| RPL21P44 (ribosomal protein L21 pseudogene 44) | -0.66 |
| RPL21P44 (ribosomal protein L21 pseudogene 44) | -0.01 |
| RPL21P44 (ribosomal protein L21 pseudogene 44) | -0.8 |
| RPL21P44 (ribosomal protein L21 pseudogene 44) | -0.78 |
